The structures given here were assigned with low confidence; some may be wrong.
Biological target: human DGAT2 (Homo sapiens, UniProt Q96PD7)
Test: DGAT2 enzyme activity inhibition, Phospholipid FlashPlate SPA
Details: recombinant human DGAT2 membrane protein from Sf-21 cells; inhibition of [14C]-TG production; 37° C.

By UniProt entry, the sequences of proteins in these tests, tags left out.
UniProt Q96PD7, whole entry: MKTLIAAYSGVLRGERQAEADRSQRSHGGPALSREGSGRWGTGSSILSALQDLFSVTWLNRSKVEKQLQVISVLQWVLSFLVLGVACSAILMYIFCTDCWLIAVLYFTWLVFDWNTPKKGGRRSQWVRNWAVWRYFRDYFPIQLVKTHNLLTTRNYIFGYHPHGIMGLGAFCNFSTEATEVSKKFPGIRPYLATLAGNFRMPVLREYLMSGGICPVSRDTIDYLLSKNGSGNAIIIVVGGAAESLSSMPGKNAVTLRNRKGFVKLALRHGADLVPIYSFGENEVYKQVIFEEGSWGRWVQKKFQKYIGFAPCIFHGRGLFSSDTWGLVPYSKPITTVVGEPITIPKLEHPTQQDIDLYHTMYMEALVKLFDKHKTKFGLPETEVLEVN

IC50: 1300 nM
Compound: CCOc1ccccc1O[C@@H]1CCCN(c2nc(Nc3cccc(-c4cccc(CC(C)(C)C(=O)O)c4)n3)ncc2F)C1
